# Data taken from publication PMC3540053.
# Molecular target: T1, OsCOI2 (Oryza sativa) (UniProt Q84QA7)
# T1 sequence: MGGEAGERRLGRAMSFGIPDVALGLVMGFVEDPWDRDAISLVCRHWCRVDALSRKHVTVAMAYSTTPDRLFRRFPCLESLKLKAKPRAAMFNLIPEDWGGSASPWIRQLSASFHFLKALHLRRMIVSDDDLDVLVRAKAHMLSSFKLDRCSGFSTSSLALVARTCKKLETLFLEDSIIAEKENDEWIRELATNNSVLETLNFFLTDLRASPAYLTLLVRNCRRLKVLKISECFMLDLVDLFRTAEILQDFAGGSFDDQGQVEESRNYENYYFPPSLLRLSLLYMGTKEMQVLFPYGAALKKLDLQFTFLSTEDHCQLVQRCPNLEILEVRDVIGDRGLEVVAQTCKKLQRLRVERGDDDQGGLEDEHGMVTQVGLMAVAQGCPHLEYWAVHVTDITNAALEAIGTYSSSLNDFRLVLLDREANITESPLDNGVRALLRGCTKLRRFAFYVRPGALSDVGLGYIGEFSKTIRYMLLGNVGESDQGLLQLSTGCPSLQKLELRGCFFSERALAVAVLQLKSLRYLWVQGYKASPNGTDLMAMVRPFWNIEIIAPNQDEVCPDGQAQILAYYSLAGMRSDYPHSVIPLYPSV
# Test: two-hybrid; OsCOIs as baits in pGBKT7, OsJAZs or JAZs as preys in pGADT7, co-transformed into S. cerevisiae AH109; growth on SD without Ade, His, Leu and Trp (QDO) with 100 µM coronatine, 7 days; graded strong (+++), medium (++), weak (+), undetectable (−)
row,binding,Substance
1,no binding,JAZ12 (Arabidopsis thaliana ecotype Columbia)
2,no binding,JAZ1 (Arabidopsis thaliana ecotype Columbia)
3,no binding,JAZ2 (Arabidopsis thaliana ecotype Columbia)

# The remaining lines, values behind:
row,Substance,binding
1,JAZ6 (Arabidopsis thaliana ecotype Columbia),no binding
2,JAZ5 (Arabidopsis thaliana ecotype Columbia),no binding

# No constants are given. Whether binding was seen depends on the method and setting.
